Compound in this assay: Cc1cc(ccc1-c1ccccc1)C(=O)N1CCCN(CC1)C(=O)CCl [compound 10]
The experiment in a line: probe-labelled cysteine peptide fold change vs DMSO (competition) (log2 fold change); higher = less target engagement (more negative = stronger competition). The following applies: THP-1, incubation time: 4 h.

By UniProt entry, the sequences of proteins in these tests, tags left out. Where a name states a change or a piece, a line headed by the entry shows the natural chain unless it says otherwise.
UniProt Q9UBB6: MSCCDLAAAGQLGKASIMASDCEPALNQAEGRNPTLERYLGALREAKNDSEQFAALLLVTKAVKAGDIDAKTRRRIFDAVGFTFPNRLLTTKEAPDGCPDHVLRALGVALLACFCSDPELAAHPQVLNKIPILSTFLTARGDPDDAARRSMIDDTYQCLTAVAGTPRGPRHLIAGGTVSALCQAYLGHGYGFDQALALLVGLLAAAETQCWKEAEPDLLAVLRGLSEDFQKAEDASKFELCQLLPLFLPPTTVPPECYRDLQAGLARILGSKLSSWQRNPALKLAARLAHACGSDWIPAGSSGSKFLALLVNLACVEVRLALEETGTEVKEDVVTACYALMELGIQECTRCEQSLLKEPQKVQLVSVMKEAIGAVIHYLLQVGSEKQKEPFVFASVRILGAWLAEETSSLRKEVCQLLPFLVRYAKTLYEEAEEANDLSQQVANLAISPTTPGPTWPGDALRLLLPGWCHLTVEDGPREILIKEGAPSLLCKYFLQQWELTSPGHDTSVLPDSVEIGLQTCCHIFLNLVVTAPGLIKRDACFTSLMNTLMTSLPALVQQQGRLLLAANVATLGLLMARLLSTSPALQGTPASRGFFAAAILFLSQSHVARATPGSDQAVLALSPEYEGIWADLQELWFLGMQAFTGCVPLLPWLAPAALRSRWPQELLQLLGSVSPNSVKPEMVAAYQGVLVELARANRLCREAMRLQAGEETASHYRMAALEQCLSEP
UniProt O43776: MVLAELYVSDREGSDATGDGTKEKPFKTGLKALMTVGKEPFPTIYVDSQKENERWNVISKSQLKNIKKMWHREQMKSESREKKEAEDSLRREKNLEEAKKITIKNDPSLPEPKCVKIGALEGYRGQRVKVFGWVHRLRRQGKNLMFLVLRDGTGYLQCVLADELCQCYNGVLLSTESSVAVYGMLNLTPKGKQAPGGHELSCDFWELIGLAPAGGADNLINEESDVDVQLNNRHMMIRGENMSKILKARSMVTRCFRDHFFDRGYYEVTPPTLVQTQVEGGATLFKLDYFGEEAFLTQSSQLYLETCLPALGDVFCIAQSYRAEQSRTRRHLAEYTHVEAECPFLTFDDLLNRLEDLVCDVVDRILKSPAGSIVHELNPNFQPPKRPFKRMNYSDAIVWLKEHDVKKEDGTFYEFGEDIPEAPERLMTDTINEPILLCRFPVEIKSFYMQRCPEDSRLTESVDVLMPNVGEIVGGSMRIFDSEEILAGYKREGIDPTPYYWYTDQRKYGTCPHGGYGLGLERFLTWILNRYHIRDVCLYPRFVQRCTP
UniProt Q6XQN6: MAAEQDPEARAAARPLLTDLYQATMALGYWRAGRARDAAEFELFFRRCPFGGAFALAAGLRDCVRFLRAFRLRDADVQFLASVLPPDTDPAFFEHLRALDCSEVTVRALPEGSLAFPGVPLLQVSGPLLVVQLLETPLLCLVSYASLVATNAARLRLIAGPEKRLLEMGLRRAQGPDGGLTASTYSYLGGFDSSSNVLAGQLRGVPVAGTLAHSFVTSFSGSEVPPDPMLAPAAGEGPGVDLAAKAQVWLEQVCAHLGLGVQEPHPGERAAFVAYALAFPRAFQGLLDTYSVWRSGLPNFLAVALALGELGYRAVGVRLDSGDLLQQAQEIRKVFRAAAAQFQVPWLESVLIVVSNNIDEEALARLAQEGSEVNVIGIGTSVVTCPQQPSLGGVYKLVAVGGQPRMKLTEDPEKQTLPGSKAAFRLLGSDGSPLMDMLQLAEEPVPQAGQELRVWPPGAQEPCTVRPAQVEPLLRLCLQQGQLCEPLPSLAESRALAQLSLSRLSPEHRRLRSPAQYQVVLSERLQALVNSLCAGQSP
UniProt P54920: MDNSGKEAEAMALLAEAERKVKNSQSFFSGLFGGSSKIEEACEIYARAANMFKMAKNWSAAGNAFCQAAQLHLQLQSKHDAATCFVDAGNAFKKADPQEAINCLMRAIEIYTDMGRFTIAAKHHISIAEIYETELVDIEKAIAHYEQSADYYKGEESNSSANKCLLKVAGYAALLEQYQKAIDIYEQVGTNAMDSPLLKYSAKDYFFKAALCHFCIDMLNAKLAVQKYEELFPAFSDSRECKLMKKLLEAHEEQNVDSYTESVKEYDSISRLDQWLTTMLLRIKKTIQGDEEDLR
UniProt P55209: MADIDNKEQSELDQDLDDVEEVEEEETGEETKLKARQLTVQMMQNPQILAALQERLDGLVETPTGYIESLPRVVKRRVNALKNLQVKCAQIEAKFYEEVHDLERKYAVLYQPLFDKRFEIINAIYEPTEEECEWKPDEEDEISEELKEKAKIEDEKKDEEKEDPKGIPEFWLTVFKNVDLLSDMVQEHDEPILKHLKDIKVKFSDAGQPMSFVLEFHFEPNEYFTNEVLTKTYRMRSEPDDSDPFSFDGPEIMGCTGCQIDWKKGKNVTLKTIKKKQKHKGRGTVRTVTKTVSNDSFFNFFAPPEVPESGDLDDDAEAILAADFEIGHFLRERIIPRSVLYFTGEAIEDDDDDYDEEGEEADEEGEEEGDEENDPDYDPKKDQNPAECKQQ
UniProt P17050: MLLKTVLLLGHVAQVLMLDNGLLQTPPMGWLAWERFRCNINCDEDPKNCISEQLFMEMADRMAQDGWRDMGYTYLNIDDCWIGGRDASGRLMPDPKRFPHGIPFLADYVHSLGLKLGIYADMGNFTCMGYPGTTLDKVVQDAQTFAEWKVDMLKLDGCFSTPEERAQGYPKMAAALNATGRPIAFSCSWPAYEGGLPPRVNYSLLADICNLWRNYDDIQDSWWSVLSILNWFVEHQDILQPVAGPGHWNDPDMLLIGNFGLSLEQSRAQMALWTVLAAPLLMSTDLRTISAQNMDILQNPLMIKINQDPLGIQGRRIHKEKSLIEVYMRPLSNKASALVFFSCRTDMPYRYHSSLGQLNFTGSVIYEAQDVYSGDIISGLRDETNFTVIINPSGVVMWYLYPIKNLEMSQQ
UniProt Q147X3: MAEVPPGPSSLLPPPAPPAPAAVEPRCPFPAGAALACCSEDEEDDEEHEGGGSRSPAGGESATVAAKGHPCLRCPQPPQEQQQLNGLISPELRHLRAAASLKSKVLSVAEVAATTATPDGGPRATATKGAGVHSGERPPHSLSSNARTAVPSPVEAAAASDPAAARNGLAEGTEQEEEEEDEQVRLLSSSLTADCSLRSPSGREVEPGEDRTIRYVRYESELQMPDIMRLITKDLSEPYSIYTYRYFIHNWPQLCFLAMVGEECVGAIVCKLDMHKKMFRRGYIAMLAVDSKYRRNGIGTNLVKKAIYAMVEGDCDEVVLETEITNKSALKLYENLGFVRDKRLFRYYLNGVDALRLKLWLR
UniProt P42695: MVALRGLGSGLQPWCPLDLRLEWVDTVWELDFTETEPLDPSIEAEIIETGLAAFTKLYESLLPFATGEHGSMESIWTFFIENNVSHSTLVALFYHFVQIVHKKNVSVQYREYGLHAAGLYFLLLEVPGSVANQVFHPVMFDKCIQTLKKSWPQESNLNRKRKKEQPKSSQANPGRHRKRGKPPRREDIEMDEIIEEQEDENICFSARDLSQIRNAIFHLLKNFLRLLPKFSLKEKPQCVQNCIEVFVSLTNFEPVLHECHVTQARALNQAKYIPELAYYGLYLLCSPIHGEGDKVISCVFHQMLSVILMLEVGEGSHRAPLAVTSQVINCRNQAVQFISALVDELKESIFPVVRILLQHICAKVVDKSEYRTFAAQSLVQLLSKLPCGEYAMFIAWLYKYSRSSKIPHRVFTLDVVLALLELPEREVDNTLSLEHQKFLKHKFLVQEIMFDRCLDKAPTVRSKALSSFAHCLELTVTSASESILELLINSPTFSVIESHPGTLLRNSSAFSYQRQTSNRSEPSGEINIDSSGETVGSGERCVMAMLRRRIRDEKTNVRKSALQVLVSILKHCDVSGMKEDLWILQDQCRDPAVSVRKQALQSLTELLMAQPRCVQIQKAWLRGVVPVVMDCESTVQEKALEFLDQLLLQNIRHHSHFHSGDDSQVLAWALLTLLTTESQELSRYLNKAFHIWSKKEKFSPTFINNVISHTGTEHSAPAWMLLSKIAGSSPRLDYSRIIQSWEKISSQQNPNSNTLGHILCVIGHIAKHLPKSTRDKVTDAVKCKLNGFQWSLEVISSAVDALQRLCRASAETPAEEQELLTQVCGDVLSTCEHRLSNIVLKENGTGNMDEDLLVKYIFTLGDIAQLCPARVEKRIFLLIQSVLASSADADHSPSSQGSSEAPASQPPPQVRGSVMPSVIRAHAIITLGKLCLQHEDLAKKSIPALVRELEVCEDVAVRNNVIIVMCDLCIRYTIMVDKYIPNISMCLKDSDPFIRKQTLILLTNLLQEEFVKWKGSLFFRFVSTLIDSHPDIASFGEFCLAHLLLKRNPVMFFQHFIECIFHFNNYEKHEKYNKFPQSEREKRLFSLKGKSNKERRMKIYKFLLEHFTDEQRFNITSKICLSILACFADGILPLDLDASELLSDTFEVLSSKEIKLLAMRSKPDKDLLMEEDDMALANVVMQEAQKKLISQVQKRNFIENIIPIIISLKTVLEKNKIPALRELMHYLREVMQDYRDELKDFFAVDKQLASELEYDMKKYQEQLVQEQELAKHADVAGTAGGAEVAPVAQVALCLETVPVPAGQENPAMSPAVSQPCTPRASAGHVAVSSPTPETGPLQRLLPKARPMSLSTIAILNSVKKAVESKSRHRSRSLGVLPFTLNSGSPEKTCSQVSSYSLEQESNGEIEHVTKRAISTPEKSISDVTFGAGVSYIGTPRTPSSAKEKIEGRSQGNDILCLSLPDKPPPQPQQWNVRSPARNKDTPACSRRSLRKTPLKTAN
UniProt Q9UM54, whole entry, looked up: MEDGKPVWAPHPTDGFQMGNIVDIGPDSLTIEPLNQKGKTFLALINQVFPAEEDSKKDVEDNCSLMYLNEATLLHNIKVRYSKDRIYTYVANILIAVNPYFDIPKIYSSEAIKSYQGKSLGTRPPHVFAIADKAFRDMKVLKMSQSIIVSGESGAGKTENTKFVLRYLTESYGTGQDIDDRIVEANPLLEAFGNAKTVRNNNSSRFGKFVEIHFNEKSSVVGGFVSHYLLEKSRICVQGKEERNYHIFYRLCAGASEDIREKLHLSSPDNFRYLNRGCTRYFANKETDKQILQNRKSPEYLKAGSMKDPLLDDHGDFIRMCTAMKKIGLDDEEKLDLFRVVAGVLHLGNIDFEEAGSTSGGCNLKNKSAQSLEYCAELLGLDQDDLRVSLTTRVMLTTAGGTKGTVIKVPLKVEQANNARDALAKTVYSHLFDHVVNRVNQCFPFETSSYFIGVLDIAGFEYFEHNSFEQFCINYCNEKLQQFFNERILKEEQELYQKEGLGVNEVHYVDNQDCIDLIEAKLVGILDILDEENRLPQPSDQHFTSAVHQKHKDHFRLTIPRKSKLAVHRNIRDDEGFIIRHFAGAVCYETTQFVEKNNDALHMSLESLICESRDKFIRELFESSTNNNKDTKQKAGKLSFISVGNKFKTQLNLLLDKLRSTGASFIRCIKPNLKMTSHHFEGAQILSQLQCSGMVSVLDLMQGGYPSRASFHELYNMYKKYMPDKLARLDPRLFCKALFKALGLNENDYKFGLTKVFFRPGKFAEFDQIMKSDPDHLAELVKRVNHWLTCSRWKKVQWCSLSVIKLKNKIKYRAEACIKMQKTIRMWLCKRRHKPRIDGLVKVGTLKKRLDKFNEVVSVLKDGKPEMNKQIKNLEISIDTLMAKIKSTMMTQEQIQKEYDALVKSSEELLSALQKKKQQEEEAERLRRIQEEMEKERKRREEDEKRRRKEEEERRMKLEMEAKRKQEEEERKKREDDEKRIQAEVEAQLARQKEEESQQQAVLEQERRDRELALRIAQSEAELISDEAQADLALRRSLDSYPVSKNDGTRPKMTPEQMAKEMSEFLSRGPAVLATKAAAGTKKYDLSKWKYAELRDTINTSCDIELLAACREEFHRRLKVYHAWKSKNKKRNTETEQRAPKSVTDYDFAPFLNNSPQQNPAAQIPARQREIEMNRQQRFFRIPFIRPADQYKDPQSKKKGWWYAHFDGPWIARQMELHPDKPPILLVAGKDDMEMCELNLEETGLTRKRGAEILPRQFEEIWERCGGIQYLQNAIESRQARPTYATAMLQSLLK
UniProt Q9NR45: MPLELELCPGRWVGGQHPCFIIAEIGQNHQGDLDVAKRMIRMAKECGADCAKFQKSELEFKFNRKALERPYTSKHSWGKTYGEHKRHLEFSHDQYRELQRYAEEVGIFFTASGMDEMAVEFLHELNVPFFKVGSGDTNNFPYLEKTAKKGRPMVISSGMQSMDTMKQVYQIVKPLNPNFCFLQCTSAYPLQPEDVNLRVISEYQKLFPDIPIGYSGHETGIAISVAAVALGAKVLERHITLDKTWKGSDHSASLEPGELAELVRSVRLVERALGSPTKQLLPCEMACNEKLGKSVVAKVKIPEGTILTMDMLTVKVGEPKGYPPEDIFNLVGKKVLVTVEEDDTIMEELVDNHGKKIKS

The other results are listed elsewhere or left out.
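Note: competitive profiling in live THP-1 cells: cysteine peptides tagged with an iodoacetamide desthiobiotin (IA-DTB) probe, intensity after compound treatment relative to DMSO-treated cells.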

In the case of “NCDN_Q9UBB6_415_EVCQLLPFLVR (UniProt Q9UBB6)”, the “probe-labelled cysteine peptide fold change” value by setting is: (10 µM) 0.022; (50 µM) 0.174.
The matching figures for “NARS_O43776_342_RHLAEYTHVEAECPFLTFDDLLNR (UniProt O43776)”: 0.137 and 0.182.
The matching figures for “NAPRT_Q6XQN6_48_CPFGGAFALAAGLRDCVR (UniProt Q6XQN6)”: -0.262 and 0.0112.
The matching figures for “NAPA_P54920_103_ADPQEAINCLMR (UniProt P54920)”: 0.18 and 0.215.
In the case of “NAP1L1_P55209_88_CAQIEAK (UniProt P55209)”, the “probe-labelled cysteine peptide fold change” value was -0.0583 (10 µM) and -0.0287 (50 µM).
As to “NAGA_P17050_42_CNINCDEDPK (UniProt P17050)”, the “probe-labelled cysteine peptide fold change” value was -0.0306 (10 µM) and 0.15 (50 µM).
On the same counts, the results for “NAA30_Q147X3_195_LLSSSLTADCSLR (UniProt Q147X3)” are -0.082 and -0.15.
Take “NCAPD3_P42695_760_ISSQQNPNSNTLGHILCVIGHIAK (UniProt P42695)”: the “probe-labelled cysteine peptide fold change” value runs as follows: (10 µM) -0.174; (50 µM) -0.0655.
The matching figures for “MYO6_Q9UM54_63_DVEDNCSLMYLNEATLLHNIK (UniProt Q9UM54)”: -0.133 and 0.237.
“NANS_Q9NR45_8_PLELELCPGR (UniProt Q9NR45)”: the “probe-labelled cysteine peptide fold change” value is, setting by setting: (10 µM) 0.115; (50 µM) -0.239.

For the origin of these results see the supplement of paper PMC12067093, “Discovery and optimisation of a covalent ligand for TRIM25 and its application to targeted protein ubiquitination” (Chemical Science, 2025).
